Values from PubChem BioAssay AID1508588 (Peter MacCallum Cancer Centre, 2020)
Test: 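Genome-wide search for knock-downs that heighten vemurafenib action in melanoma cells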 (primary screen). Cells: human WM266.4 melanoma cells (BRAF V600 mutant). Reagent: siRNA pool against human genes, 40 nM. Time to read-out: 96 h from transfection to read-out. Treatment: vemurafenib 300 nM (about IC25), added 48 h after transfection, for 48 h; comparison arm got DMSO vehicle only. Read-out: 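Ratios to non-targeting siRNA for cell gain, counted as DAPI nuclei after minus before drug and averaged over two replicates, and for absorbance-read medium lactate per cell; both binned into fold-change classes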. Scale: cell gain with vemurafenib: higher = more cell gain than with non-targeting siRNA; lactate per cell with vemurafenib: higher = more lactate made per cell. Rule for the call: 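a knock-down counts as enhancing when its fold-change classes with vehicle and with vemurafenib, taken together, show a stronger drug effect on cell gain or lactate per cell; exact class pairs not stated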. Meaning of the calls: active = enhances vemurafenib effect; inactive = no enhancement seen.
Here is an unselected part of about 18,000 deposited reagents. 790 of them (4.4%) were called active. 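Calls rest on a combination of fold-change classes in drug and vehicle arms, not all shown here.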

Knock-down of TXNRD2 gave: cell gain with vemurafenib 0.25; lactate per cell with vemurafenib 2.21; inactive.
PRTN3 gave cell gain with vemurafenib 0.3; lactate per cell with vemurafenib 2.02; inactive.
WARS1 scored cell gain with vemurafenib 0.7; lactate per cell with vemurafenib 1.24; inactive.
UTP18 gave cell gain with vemurafenib 0.46; lactate per cell with vemurafenib 0.87; inactive.
With knock-down of IL17D the results were cell gain with vemurafenib 0.32; lactate per cell with vemurafenib 1.29; inactive.
For TSSC4, the entry reads cell gain with vemurafenib 0.52; lactate per cell with vemurafenib 0.72; inactive.
With knock-down of CENPT the results were cell gain with vemurafenib 0.87; lactate per cell with vemurafenib 1.07; inactive.
With knock-down of ATP5MJ the results were cell gain with vemurafenib 0.52; lactate per cell with vemurafenib 1.56; inactive.

Records above whose gene name starts with T or t:
TXNRD2 | cell gain with vemurafenib: 0.25; lactate per cell with vemurafenib: 2.21; Call: inactive
TSSC4 | cell gain with vemurafenib: 0.52; lactate per cell with vemurafenib: 0.72; Call: inactive

Additional records follow:
Silencing of CDH7 came out at: cell gain with vemurafenib 0.88; lactate per cell with vemurafenib 1.15; inactive.
After knock-down of C11orf40 the results were cell gain with vemurafenib 0.34; lactate per cell with vemurafenib 0.29; inactive.
ZSCAN26 showed cell gain with vemurafenib 0.64; lactate per cell with vemurafenib 1.06; inactive.
With knock-down of ZBED3 the results were cell gain with vemurafenib 0.84; lactate per cell with vemurafenib 0.73; inactive.
CPSF1 scored cell gain with vemurafenib 0.63; lactate per cell with vemurafenib 0.94; inactive.
With knock-down of LRRC26 the results were cell gain with vemurafenib 1.14; lactate per cell with vemurafenib 0.6; inactive.
With knock-down of ZIC4 the results were cell gain with vemurafenib 0.5; lactate per cell with vemurafenib 0.78; inactive.
PUS1 gave cell gain with vemurafenib 0.65; lactate per cell with vemurafenib 2.07; inactive.
